The list shows a part of the results.
Columns and labels:
Test in all cases: log2 fold change, soluble protein after heating vs DMSO (PISA); higher = thermal stabilisation; K562 lysate, 10 uM; active = over 0.2 and 3.5 SD of the protein, either way, in both replicates (recomputed)
crizotinib = compound: C[C@@H](Oc1cc(-c2cnn(C3CCNCC3)c2)cnc1N)c1c(Cl)ccc(F)c1Cl [crizotinib]
Outline: (§1)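 Thermal stability, expressed as log-two fold change relative to solvent controls, is given from duplicates. Crude K562 extract in PBS pH 7.4 with 1 mM MgCl2, at 1 mg/mL protein, was treated with 10 μM compound for 30 min and heated in aliquots for 3 min across 48°C-58°C. After pooling, adjustment to 0.5% NP-40 at 4°C and centrifugation at 21,000xg for 90 min, supernatant protein was measured by TMTpro 16plex LC-MS/MS with channel sums equalised.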

Sequences of proteins named here, by UniProt entry; tags and fusion partners are left off. A change or cut given only in a name is not applied to a line headed by its entry.
UniProt Q8WV19: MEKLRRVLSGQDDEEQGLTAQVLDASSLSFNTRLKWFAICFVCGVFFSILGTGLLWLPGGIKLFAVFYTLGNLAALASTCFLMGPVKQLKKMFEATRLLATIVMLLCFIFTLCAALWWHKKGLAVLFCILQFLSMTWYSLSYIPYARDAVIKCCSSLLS
UniProt P01009, whole entry, looked up: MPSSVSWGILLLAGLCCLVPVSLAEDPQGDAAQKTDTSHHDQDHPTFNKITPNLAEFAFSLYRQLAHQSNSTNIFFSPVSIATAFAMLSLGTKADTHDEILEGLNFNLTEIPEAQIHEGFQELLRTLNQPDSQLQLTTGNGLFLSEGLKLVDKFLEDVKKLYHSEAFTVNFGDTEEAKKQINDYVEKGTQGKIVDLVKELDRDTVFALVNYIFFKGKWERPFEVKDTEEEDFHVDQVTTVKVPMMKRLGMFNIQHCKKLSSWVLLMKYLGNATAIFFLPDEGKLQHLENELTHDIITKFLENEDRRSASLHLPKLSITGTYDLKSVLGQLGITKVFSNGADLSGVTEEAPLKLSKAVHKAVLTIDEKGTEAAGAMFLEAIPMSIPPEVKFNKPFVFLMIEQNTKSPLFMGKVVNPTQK
UniProt Q96EP9: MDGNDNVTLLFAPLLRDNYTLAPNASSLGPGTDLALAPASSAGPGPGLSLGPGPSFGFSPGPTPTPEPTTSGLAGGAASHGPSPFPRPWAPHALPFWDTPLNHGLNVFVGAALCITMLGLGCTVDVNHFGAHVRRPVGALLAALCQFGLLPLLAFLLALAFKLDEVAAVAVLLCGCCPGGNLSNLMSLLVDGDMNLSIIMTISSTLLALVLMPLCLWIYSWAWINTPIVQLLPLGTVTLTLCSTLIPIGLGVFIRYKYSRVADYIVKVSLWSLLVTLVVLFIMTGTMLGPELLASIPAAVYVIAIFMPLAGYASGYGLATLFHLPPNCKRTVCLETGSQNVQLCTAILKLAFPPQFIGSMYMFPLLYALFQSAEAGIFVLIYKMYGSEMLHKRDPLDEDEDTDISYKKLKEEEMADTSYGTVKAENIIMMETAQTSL
UniProt Q96BR1: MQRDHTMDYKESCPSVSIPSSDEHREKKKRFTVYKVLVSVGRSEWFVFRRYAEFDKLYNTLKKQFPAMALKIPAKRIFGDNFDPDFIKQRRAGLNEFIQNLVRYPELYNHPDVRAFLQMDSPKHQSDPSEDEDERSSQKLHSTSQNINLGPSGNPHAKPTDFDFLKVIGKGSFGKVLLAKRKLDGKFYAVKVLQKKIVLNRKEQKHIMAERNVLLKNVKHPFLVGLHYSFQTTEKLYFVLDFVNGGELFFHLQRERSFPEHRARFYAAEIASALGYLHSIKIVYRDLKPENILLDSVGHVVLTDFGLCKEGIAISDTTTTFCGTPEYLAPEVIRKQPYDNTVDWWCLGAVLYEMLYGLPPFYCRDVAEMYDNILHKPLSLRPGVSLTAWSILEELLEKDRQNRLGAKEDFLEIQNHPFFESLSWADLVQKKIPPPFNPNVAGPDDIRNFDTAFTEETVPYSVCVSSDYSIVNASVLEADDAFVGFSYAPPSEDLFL
UniProt Q8IYI0: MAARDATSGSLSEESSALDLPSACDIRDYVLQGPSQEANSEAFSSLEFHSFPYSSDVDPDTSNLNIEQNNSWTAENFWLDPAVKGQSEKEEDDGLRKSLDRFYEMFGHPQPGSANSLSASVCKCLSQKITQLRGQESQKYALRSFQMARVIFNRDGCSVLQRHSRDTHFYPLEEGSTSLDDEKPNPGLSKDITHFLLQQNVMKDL
UniProt Q9HAT2: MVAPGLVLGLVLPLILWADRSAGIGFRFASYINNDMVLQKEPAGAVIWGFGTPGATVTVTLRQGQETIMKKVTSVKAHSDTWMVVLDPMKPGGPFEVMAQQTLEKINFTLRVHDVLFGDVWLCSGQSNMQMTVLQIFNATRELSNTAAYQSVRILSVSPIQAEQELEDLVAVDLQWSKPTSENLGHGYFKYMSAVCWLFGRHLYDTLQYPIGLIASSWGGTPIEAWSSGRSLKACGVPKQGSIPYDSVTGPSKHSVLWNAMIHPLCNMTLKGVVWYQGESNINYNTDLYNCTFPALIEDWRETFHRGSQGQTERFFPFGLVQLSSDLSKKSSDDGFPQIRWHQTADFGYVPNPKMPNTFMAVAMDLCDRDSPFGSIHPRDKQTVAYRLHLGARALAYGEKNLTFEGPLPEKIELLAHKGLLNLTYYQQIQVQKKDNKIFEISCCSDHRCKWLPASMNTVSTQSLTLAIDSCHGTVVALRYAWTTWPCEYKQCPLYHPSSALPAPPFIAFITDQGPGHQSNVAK
UniProt P09131: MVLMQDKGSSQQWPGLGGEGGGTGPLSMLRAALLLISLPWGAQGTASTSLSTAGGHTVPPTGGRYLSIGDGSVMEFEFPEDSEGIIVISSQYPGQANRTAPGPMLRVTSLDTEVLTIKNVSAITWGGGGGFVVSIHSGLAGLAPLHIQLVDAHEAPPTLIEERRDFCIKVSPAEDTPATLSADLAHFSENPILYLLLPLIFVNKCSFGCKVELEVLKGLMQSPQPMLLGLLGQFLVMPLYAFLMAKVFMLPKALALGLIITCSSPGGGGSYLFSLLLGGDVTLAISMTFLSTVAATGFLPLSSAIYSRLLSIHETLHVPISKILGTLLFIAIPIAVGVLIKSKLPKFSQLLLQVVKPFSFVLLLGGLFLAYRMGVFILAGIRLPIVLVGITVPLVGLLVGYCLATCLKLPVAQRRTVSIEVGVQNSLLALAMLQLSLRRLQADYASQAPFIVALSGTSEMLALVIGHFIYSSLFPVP
UniProt Q9UIV8: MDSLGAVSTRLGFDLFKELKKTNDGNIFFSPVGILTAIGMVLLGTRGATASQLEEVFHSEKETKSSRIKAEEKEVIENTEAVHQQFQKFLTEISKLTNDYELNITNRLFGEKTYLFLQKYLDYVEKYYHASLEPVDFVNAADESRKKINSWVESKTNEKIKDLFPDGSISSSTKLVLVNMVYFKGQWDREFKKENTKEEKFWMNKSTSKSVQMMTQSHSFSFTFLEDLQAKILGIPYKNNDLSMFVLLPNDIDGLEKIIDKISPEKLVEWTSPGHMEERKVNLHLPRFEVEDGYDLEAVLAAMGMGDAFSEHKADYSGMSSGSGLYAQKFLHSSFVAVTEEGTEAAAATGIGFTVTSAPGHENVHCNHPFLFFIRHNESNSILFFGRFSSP
UniProt P08697: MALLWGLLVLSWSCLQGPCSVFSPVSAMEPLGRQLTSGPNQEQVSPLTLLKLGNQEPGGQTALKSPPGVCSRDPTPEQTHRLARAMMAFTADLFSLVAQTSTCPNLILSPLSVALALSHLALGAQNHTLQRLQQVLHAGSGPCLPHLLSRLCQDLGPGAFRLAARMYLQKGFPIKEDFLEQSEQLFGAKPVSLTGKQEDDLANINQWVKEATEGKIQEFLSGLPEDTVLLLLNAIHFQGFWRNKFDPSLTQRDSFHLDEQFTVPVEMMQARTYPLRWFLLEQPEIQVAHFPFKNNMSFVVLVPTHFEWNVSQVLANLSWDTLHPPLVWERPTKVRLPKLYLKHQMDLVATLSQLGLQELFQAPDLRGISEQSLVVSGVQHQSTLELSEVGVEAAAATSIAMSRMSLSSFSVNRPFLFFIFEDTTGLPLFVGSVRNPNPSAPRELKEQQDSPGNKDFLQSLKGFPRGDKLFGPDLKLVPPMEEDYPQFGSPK

duvelisib = compound: C[C@H](Nc1ncnc2nc[nH]c12)c1cc2cccc(Cl)c2c(=O)n1-c1ccccc1 [duvelisib]
Outline: as §1

doramapimod = compound: Cc1ccc(-n2nc(C(C)(C)C)cc2NC(=O)Nc2ccc(OCCN3CCOCC3)c3ccccc23)cc1 [doramapimod]
Outline: as §1

[1] = compound: C[C@H](C1=CC=C(C=C1)C(=O)NC2=C3C=CNC3=NC=C2)N
Outline: as §1

gandotinib = compound: Cc1cc(Nc2cc(CN3CCOCC3)c3nc(C)c(Cc4ccc(Cl)cc4F)n3n2)n[nH]1 [gandotinib]
Outline: as §1

[2] = compound: Cc1cccc(CC(=O)N2CCc3c2ccc(-c2cn(C)c4ncnc(N)c24)c3F)n1
Outline: as §1

lapatinib = compound: CS(=O)(=O)CCNCc1ccc(-c2ccc3ncnc(Nc4ccc(OCc5cccc(F)c5)c(Cl)c4)c3c2)o1 [lapatinib]
Outline: as §1

tozasertib = compound: Cc1cc(Nc2cc(N3CCN(C)CC3)nc(Sc3ccc(NC(=O)C4CC4)cc3)n2)n[nH]1 [tozasertib]
Outline: as §1

pictilisib = compound: CS(=O)(=O)N1CCN(Cc2cc3nc(-c4cccc5[nH]ncc45)nc(N4CCOCC4)c3s2)CC1 [pictilisib]
Outline: as §1

bafetinib = compound: Cc1ccc(NC(=O)c2ccc(CN3CC[C@H](N(C)C)C3)c(C(F)(F)F)c2)cc1Nc1nccc(-c2cncnc2)n1 [bafetinib]
Outline: as §1

Measured: log2 fold change

SFT2D1 (UniProt Q8WV19)
inactive: crizotinib -0.022 | duvelisib -0.184 | doramapimod -0.262

SERPINA1 (UniProt P01009)
inactive: [1] 0.152 | duvelisib 0.044 | gandotinib -0.255 | [2] 0.203

SLC10A4 (UniProt Q96EP9)
inactive: lapatinib 0.064 | duvelisib 0.032

SGK3 (UniProt Q96BR1)
inactive: duvelisib 0.075

SHLD1 (UniProt Q8IYI0)
inactive: duvelisib -0.219 | tozasertib -0.151

SIAE (UniProt Q9HAT2)
inactive: pictilisib 0.015 | crizotinib 0.16 | [1] -0.161 | gandotinib 0.163 | tozasertib 0.029 | doramapimod 0.067 | bafetinib -0.126 | [2] 0.052

SLC10A3 (UniProt P09131)
inactive: [1] -0.022 | gandotinib 0.004 | tozasertib 0.09 | [2] 0.008

SERPINB13 (UniProt Q9UIV8)
inactive: pictilisib 0.565 | bafetinib -0.117

SERPINF2 (UniProt P08697)
inactive: pictilisib -0.017 | crizotinib 0.074 | [1] 0.332 | gandotinib 0.01 | tozasertib -0.015 | doramapimod -0.185 | bafetinib -0.016 | [2] -0.024

From the supplement of paper PMC10849652
